Reference: PubChem BioAssay AID1347075 (National Center for Advancing Translational Sciences (NCATS), 2019)
Hit rate of the full screen: of about 400,000 compounds, about 5,500 (1.4%) were called active. This list was built around the results that the source calls inconclusive (neither active nor inactive); the mix of calls is not that of the screen. Calls follow the shape of the dose curve; as a rule, active = well fitted cell-killing curve with a large enough effect; inconclusive = small, poorly fitted or top-dose-only effect, or effect the other way; inactive = flat fitted curve, though single readings scatter. Potencies beside an inconclusive call are fits to weak or partial responses and may not hold up.

Assay: qHTS assay for MDR1-selective chemotherapeutics: Primary screen using the parental adenocarcinoma cell KB-3-1; also: nearly all actives have a fitted effect of over 60% in size
Details: KB-3-1 viability, CellTiter-Glo ATP luminescence, 72 h; activity change, negative = cytotoxic: at 46.1 µM (top of the series)
Summary of the method: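 Cytotoxicity measured as CellTiter-Glo luminescence after 72 h at 37 C. Compound titrations were pinned onto drug-naive KB-3-1 parental adenocarcinoma cells grown in DMEM with 10% FBS, and normalized data fitted to concentration-response curves.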
% is scaled to controls: 0 for no effect and ±100 for the full control effect; potency is read from the fitted curve at half-maximal effect.

Row | SMILES | Potency | activity change, negative = cytotoxic
1 | O=C(Nc1cccnc1)c1ccc(NC(=O)c2ccco2)cc1 | inconclusive: 11.6 µM [rising, partial curve, poor fit] | 
2 | O=S(=O)(Nc1cccc(C(F)(F)F)c1)c1ccc(-c2cnc(C3CC3)o2)cc1 | active: 10.3 µM | 
3 | O=C(CSc1nc(O)cc(=O)[nH]1)N1c2ccccc2CCc2ccccc21 | inconclusive: 32.6 µM [cytotoxic, single point] | 
4 | Cc1ccc(C)c2[nH]c(=O)c(CCNC(=O)c3ccco3)cc12 | inconclusive: 3.66 µM [rising, full curve, poor fit] | 
5 | CCOc1ccc(NC(=O)COc2cccc3cccnc23)cc1S(=O)(=O)N1CCCC1 | inconclusive: 29.1 µM [cytotoxic, single point] | 
6 | CCN(CC)c1ccc(NC(=O)c2ccccc2)cc1S(=O)(=O)Nc1ccccc1OC |  | inactive: -21.6%
7 | c1ccc(CN=C2Nc3ccccc3CS2)nc1 | inconclusive: 32.6 µM [rising, single point] | 
8 | COc1ccc(NC(=O)c2nc(C)c(C3(C)CC(c4cccnc4)=NO3)s2)cc1 (stereo not given) | active: 4.61 µM | 
9 | O=C(NCCc1nc2ccccc2[nH]1)c1ccc(Cl)c([N+](=O)[O-])c1 |  | inactive: -0.133%
10 | O=C(Nc1nnc(-c2ccc(Br)cc2)o1)c1ccco1 | inconclusive: 11.6 µM [cytotoxic, partial curve, poor fit] | 
11 | CC(C)N=C1NN=C(c2ccc(Cl)c(Cl)c2)CS1 | inconclusive: 29.1 µM [cytotoxic, single point] | 
12 | C/C=C(/C)C(=O)OC1c2c(ccc3ccc(=O)oc23)OC(C)(C)C1OC(C)=O (stereo not given) |  | inactive: -5.01%
13 | CC(=O)Oc1ccc(Cl)cc1CN(C(C)=O)C1CCCCC1 |  | inactive: -17.4%
14 | CN(C1CCCCC1)S(=O)(=O)c1ccc(NC(=O)CCC(=O)O)cc1 |  | inactive: 9.72%
15 | CCCCCSc1nc2sc3c(c2c(=O)n1-c1ccc(OC)cc1)CCN(C(C)=O)C3 | inconclusive: 23.1 µM [cytotoxic, partial curve, poor fit] | 
16 | Cc1ccc(N/N=C(\Cc2nc3ccccc3[nH]2)c2ccccc2)cc1 | active: 1.16 µM | 
17 | OCC1OC(n2cnc3c(=S)nc[nH]c32)CC1O (stereo not given) | inconclusive: 23.1 µM [cytotoxic, partial curve, poor fit] | 
18 | Cc1ccc(C(=O)O/N=C(\N)Cc2cccc3ccccc23)cc1 | inconclusive: 20.6 µM [rising, single point] | 
19 | O=C(C=Cc1ccco1)c1ccc2ccccc2c1 |  | inactive: 4.21%
20 | CCOC(=O)c1nnn(-c2nonc2-n2cccc2)c1CCl | inconclusive: 29.1 µM [cytotoxic, single point] | 

Part of the list above in a different format.
Row	SMILES	Potency	activity change, negative = cytotoxic
2	O=S(=O)(Nc1cccc(C(F)(F)F)c1)c1ccc(-c2cnc(C3CC3)o2)cc1	active: 10.3 µM	
6	CCN(CC)c1ccc(NC(=O)c2ccccc2)cc1S(=O)(=O)Nc1ccccc1OC		inactive: -21.6%
11	CC(C)N=C1NN=C(c2ccc(Cl)c(Cl)c2)CS1	inconclusive: 29.1 µM [cytotoxic, single point]	
